{"source": "paper PMC9501056", "binders": {"B1": {"name": "SSI (enzyme, UniProt A2Y9M4 114-641)", "chain": "SEQESEIMDVKEQAQAKVTRSVVFVTGEASPYAKSGGLGDVCGSLPIALALRGHRVMVVMPRYMNGALNKNFANAFYTEKHIKIPCFGGEHEVTFFHEYRDSVDWVFVDHPSYHRPGNLYGDNFGAFGDNQFRYTLLCYAACEAPLILELGGYIYGQKCMFVVNDWHASLVPVLLAAKYRPYGVYRDARSVLVIHNLAHQGVEPASTYPDLGLPPEWYGALEWVFPEWARRHALDKGEAVNFLKGAVVTADRIVTVSQGYSWEVTTAEGGQGLNELLSSRKSVLNGIVNGIDINDWNPSTDKFLPYHYSVDDLSGKAKCKAELQEELGLPIRPDVPLIGFIGRLDYQKGIDLIKLAIPDLMRDNIQFVMLGSGDPGFEGWMRSTESGYRDKFRGWVGFSVPVSHRITAGCDILLMPSRFEPCGLNQLYAMQYGTVPVVHGTGGLRDTVENFNPFAEKGEQGTGWAFSPLTIEKMLWALRMAISTYREHKSSWEGLMKRGMSSDFTWDHAASQYEQIFEWAFMDQPYVM"}, "B2": {"name": "BEI (enzyme, UniProt Q01401 65-820)", "chain": "TMVTVVEEVDHLPIYDLDPKLEEFKDHFNYRIKRYLDQKCLIEKHEGGLEEFSKGYLKFGINTVDGATIYREWAPAAQEAQLIGEFNNWNGAKHKMEKDKFGIWSIKISHVNGKPAIPHNSKVKFRFRHGGGAWVDRIPAWIRYATFDASKFGAPYDGVHWDPPACERYVFKHPRPPKPDAPRIYEAHVGMSGEEPEVSTYREFADNVLPRIRANNYNTVQLMAIMEHSYYASFGYHVTNFFAVSSRSGTPEDLKYLVDKAHSLGLRVLMDVVHSHASNNVTDGLNGYDVGQNTHESYFHTGDRGYHKLWDSRLFNYANWEVLRFLLSNLRYWMDEFMFDGFRFDGVTSMLYHHHGINKGFTGNYKEYFSLDTDVDAIVYMMLANHLMHKLLPEATIVAEDVSGMPVLCRPVDEGGVGFDFRLAMAIPDRWIDYLKNKEDRKWSMSEIVQTLTNRRYTEKCIAYAESHDQSIVGDKTIAFLLMDKEMYTGMSDLQPASPTINRGIALQKMIHFITMALGGDGYLNFMGNEFGHPEWIDFPREGNNWSYDKCRRQWSLVDTDHLRYKYMNAFDQAMNALEEEFSFLSSSKQIVSDMNEKDKVIVFERGDLVFVFNFHPNKTYKGYKVGCDLPGKYRVALDSDALVFGGHGRVGHDVDHFTSPEGMPGVPETNFNNRPNSFKVLSPPRTCVAYYRVDEDREELRRGGAVASGKIVTEYIDVEATSGETISGGWKGSEKDDCGKKGMKFVFRSSDEDCK"}, "B3": {"name": "SSIIa (enzyme, UniProt P0C586 17-810)", "chain": "ASSASRGGPRRGRVVGVAAPPALLYDGRAGRLALRAPPPPRPRPRRRDAGVVRRADDGENEAAVERAGEDDEEEEEFSSGAWQPPRSRRGGVGKVLKRRGTVPPVGRYGSGGDAARVRGAAAPAPAPTQDAASSKNGALLSGRDDDTPASRNGSVVTGADKPAAATPPVTITKLPAPDSPVILPSVDKPQPEFVIPDATAPAPPPPGSNPRSSAPLPKPDNSEFAEDKSAKVVESAPKPKATRSSPIPAVEEETWDFKKYFDLNEPDAAEDGDDDDDWADSDASDSEIDQDDDSGPLAGENVMNVIVVAAECSPWCKTGGLGDVAGALPKALARRGHRVMVVVPRYGDYAEAQDVGIRKYYKAAGQDLEVKYFHAFIDGVDFVFIDAPLFRHRQDDIYGGNRQEIMKRMILFCKAAVEVPWHVPCGGVPYGDGNLVFLANDWHTALLPVYLKAYYRDNGMMQYTRSVLVIHNIAYQGRGPVDEFPYMELPEHYLDHFKLYDPVGGEHANIFGAGLKMADRVVTVSPGYLWELKTTEGGWGLHDIIRENDWKMNGIVNGIDYREWNPEVDVHLQSDGYANYTVASLDSGKPRCKAALQRELGLEVRDDVPLIGFIGRLDGQKGVDIIGDAMPWIAGQDVQLVLLGSGRRDLEVMLQRFEAQHNSKVRGWVGFSVKMAHRITAGADVLVMPSRFEPCGLNQLYAMAYGTVPVVHAVGGLRDTVSAFDPFEDTGLGWTFDRAEPHKLIEALGHCLETYRKYKESWRGLQVRGMSQDLSWDHAAELYEEVLVKAKYQW"}}, "key": {"[1]": {"biological_target": "T1, BEI (Oryza sativa subsp. indica cv. IR36 (endogenous in developing seeds)) (UniProt Q01401)", "T1 sequence": "B2 chain", "assay": "co-IP; soluble proteins of developing seeds of WT (IR36) at 10 DAF incubated with isozyme-specific antibodies and protein A magnetic beads; washed with PBS pH 7.4; Western blotting"}, "[2]": {"biological_target": "T2, SSIIa (Oryza sativa subsp. indica cv. IR36 (endogenous in developing seeds)) (UniProt P0C586)", "T2 sequence": "B3 chain", "assay": "co-IP; soluble proteins of developing seeds of WT (IR36) at 10 DAF incubated with isozyme-specific antibodies and protein A magnetic beads; washed with PBS pH 7.4; Western blotting"}, "[3]": {"biological_target": "T1, BEI (Oryza sativa subsp. indica cv. IR36 (endogenous in developing seeds))", "assay": "co-IP; soluble proteins of developing seeds of WT (IR36) at 5 DAF incubated with isozyme-specific antibodies and protein A magnetic beads; washed with PBS pH 7.4; Western blotting"}, "[4]": {"biological_target": "T2, SSIIa (Oryza sativa subsp. indica cv. IR36 (endogenous in developing seeds))", "assay": "co-IP; soluble proteins of developing seeds of WT (IR36) at 5 DAF incubated with isozyme-specific antibodies and protein A magnetic beads; washed with PBS pH 7.4; Western blotting"}, "[5]": {"biological_target": "T1, BEI (Oryza sativa subsp. indica cv. IR36 (endogenous in developing seeds))", "assay": "co-IP; soluble proteins of developing seeds of WT (IR36) at 15 DAF incubated with isozyme-specific antibodies and protein A magnetic beads; washed with PBS pH 7.4; Western blotting"}, "[6]": {"biological_target": "T2, SSIIa (Oryza sativa subsp. indica cv. IR36 (endogenous in developing seeds))", "assay": "co-IP; soluble proteins of developing seeds of WT (IR36) at 15 DAF incubated with isozyme-specific antibodies and protein A magnetic beads; washed with PBS pH 7.4; Western blotting"}, "[7]": {"biological_target": "T2, SSIIa (Oryza sativa subsp. indica cv. IR36 (endogenous in developing seeds))", "assay": "co-IP; soluble proteins of developing seeds of the be2b mutant at 5 DAF incubated with isozyme-specific antibodies and protein A magnetic beads; washed with PBS pH 7.4; Western blotting"}, "[8]": {"biological_target": "T1, BEI (Oryza sativa subsp. indica cv. IR36 (endogenous in developing seeds))", "assay": "co-IP; soluble proteins of developing seeds of the be2b mutant at 10 DAF incubated with isozyme-specific antibodies and protein A magnetic beads; washed with PBS pH 7.4; Western blotting"}, "[9]": {"biological_target": "T1, BEI (Oryza sativa subsp. indica cv. IR36 (endogenous in developing seeds))", "assay": "co-IP; soluble proteins of developing seeds of the be2b mutant at 15 DAF incubated with isozyme-specific antibodies and protein A magnetic beads; washed with PBS pH 7.4; Western blotting"}, "[10]": {"biological_target": "T2, SSIIa (Oryza sativa subsp. indica cv. IR36 (endogenous in developing seeds))", "assay": "co-IP; soluble proteins of developing seeds of the be2b mutant at 15 DAF incubated with isozyme-specific antibodies and protein A magnetic beads; washed with PBS pH 7.4; Western blotting"}, "[11]": {"substrate": "T3, SSI (Oryza sativa subsp. indica cv. IR36 (endogenous in developing seeds)) (UniProt A2Y9M4)", "T3 sequence": "B1 chain", "assay": "co-IP; soluble proteins of developing seeds of WT (IR36) at 15 DAF incubated with isozyme-specific antibodies and protein A magnetic beads; washed with PBS pH 7.4; Western blotting"}, "[12]": {"substrate": "T3, ", "assay": "co-IP; soluble proteins of developing seeds of the be2b mutant at 15 DAF incubated with isozyme-specific antibodies and protein A magnetic beads; washed with PBS pH 7.4; Western blotting"}, "[13]": {"biological_target": "T1, BEI (Oryza sativa subsp. indica cv. IR36 (endogenous in developing seeds))", "assay": "co-IP; soluble proteins of developing seeds of the be2b mutant at 5 DAF incubated with isozyme-specific antibodies and protein A magnetic beads; washed with PBS pH 7.4; Western blotting"}, "[14]": {"substrate": "T3, ", "assay": "co-IP; soluble proteins of developing seeds of WT (IR36) at 10 DAF incubated with isozyme-specific antibodies and protein A magnetic beads; washed with PBS pH 7.4; Western blotting"}}, "note": "No constants are given. Whether binding was seen depends on the method and setting. Binding seen in cells or lysates may run through a third protein. Some results given as binding are weak or reduced against the parent protein; the word gives no strength."}
{"binder": "B1", "values": [{"measurement": "binding", "setting": "[1]", "result": "binds"}, {"measurement": "binding", "setting": "[2]", "result": "binds weakly"}, {"measurement": "binding", "setting": "[3]", "result": "binds"}, {"measurement": "binding", "setting": "[4]", "result": "binds weakly"}, {"measurement": "binding", "setting": "[5]", "result": "binds"}, {"measurement": "binding", "setting": "[6]", "result": "binds"}, {"measurement": "binding", "setting": "[7]", "result": "binds"}, {"measurement": "binding", "setting": "[8]", "result": "binds"}, {"measurement": "binding", "setting": "[9]", "result": "binds"}]}
{"binder": "B2", "values": [{"measurement": "binding", "setting": "[6]", "result": "binds weakly"}, {"measurement": "binding", "setting": "[10]", "result": "binds weakly"}, {"measurement": "binding", "setting": "[11]", "result": "binds"}, {"measurement": "binding", "setting": "[12]", "result": "binds"}]}
{"binder": "B3", "values": [{"measurement": "binding", "setting": "[1]", "result": "binds"}, {"measurement": "binding", "setting": "[3]", "result": "binds"}, {"measurement": "binding", "setting": "[5]", "result": "binds weakly"}, {"measurement": "binding", "setting": "[13]", "result": "binds weakly"}, {"measurement": "binding", "setting": "[14]", "result": "binds weakly"}, {"measurement": "binding", "setting": "[11]", "result": "binds"}]}
